Laboratory results: PubChem BioAssay AID1259254 (NCATS, 2017)
Assay: 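Gene knock-downs that lead to re-replication, shown by excess G2 DNA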 (primary screen). System: human HCT116 colorectal cancer cells. Reagents: single siRNA against human genes. Duration: 3 days. Measurement: 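Imaged Hoechst DNA stain sorts each cell into a cycle phase by DNA amount; per plate, G2 fraction set to 0% for non-targeting and 100% for GMNN siRNA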. Reading the numbers: G2 robust z-score: higher = more G2 cells, more excess DNA replication. Active means: 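An siRNA counts as active if its G2 robust z-score lies at least 5 MADs above the screen median; here such calls match roughly 38% of GMNN control or more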.
This is an unselected part of about 59,000 deposited reagents. In the full data, about 1,550 (2.6%) were called active. 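G2 share is only a proxy for re-replication; each gene was hit by three separate siRNAs, and active genes were retested.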 Entries without a mark were called inactive. The numbers tell different reagents against one gene apart. Not all columns of the deposit are shown. Not stated in the record: the amount of reagent.

| Target gene | siRNA no. | G2 robust z-score |
| --- | --- | --- |
| LBH | 1 | 0.316 |
| LBH | 2 | 0.577 |
| LBH | 3 | -0.0344 |
| CDKL3 | 1 | -0.593 |
| CDKL3 | 2 | 3.23 |
| CDKL3 | 3 | 0.0818 |
| ZNF48 | 1 | 1.1 |
| ZNF48 | 2 | -0.589 |
| ZNF48 | 3 | -1.2 |
| PIM2 | 1 | 0.98 |
| PIM2 | 2 | 3.94 |
| PIM2 | 3 | -0.139 |
| ZNF594 | 1 | -0.257 |
| ZNF594 | 2 | -0.19 |
| ZNF594 | 3 | -0.425 |
| KDELR1 | 1 | -0.774 |
| KDELR1 | 2 | -0.602 |
| KDELR1 | 3 | -0.72 |
| CNNM4 | 1 | -0.678 |
| CNNM4 | 2 | 0.0878 |
| CNNM4 | 3 | 0.975 |
| CHD1 | 1 | -0.219 |
| CHD1 | 2 | -0.865 |
| CHD1 | 3 | -0.724 |
| MYEF2 | 1 | 2.15 |
| MYEF2 | 2 | 0.721 |
| MYEF2 | 3 | -0.804 |
| IRAK1BP1 | 1 | 0.752 |
| IRAK1BP1 | 2 | 0.658 |
| IRAK1BP1 | 3 | 1.88 |
| KCTD18 | 1 | 0.588 |
| KCTD18 | 2 | 1.4 |
| KCTD18 | 3 | 2.42 |
| EIF4A3 | 1 | 0.809 |
| EIF4A3 | 2 | 0.755 |
| EIF4A3 | 3 | -0.56 |
| SMC1A | 1 | -1.43 |
| SMC1A | 2 | 4.3 |
| SMC1A | 3 | -0.338 |

6 entries from above, sorted by “G2 robust z-score”, ascending:
| Target gene | siRNA no. | G2 robust z-score |
| --- | --- | --- |
| ZNF594 | 3 | -0.425 |
| ZNF594 | 1 | -0.257 |
| ZNF594 | 2 | -0.19 |
| PIM2 | 3 | -0.139 |
| PIM2 | 1 | 0.98 |
| PIM2 | 2 | 3.94 |

The list goes on:
| Target gene | siRNA no. | G2 robust z-score |
| --- | --- | --- |
| PILRB | 1 | -0.0366 |
| PILRB | 2 | -0.277 |
| PILRB | 3 | 0.427 |
| PSMD10 | 1 | 0.433 |
| PSMD10 | 2 | -0.408 |
| PSMD10 | 3 | 0.603 |
| WARS1 | 1 | -0.0686 |
| WARS1 | 2 | 0.29 |
| WARS1 | 3 | 3.01 |
| HIKESHI | 1 | 0.837 |
| HIKESHI | 2 | -0.228 |
| HIKESHI | 3 | -1.04 |
| BCL2L12 | 1 | 0.95 |
| BCL2L12 | 2 | -0.45 |
| BCL2L12 | 3 | -0.176 |
| ARHGEF34P | 1 | 1.21 |
| ARHGEF34P | 2 | -0.714 |
| ARHGEF34P | 3 | -0.381 |
| CSN2 | 1 | 2.85 |
| CSN2 | 2 | 2.09 |
| CSN2 | 3 | 1.24 |
| CATSPERT | 1 | -0.476 |
| CATSPERT | 2 | -0.269 |
| CATSPERT | 3 | -0.537 |
| NKRF | 1 | 0.631 |
| NKRF | 2 | -0.937 |
| NKRF | 3 | 0.0222 |
| FBRS | 1 | 0.956 |
| FBRS | 2 | -0.844 |
| FBRS | 3 | -1.09 |
